Laboratory results taken from PMC9587004.
No constants are given. Whether binding was seen depends on the method and setting. Binding seen in cells or lysates may run through a third protein. Some binding calls cover weakened binding; strength is not graded here.

The chains behind the UniProt entries cited, without tags or fusion partners.
UniProt Q86WV6: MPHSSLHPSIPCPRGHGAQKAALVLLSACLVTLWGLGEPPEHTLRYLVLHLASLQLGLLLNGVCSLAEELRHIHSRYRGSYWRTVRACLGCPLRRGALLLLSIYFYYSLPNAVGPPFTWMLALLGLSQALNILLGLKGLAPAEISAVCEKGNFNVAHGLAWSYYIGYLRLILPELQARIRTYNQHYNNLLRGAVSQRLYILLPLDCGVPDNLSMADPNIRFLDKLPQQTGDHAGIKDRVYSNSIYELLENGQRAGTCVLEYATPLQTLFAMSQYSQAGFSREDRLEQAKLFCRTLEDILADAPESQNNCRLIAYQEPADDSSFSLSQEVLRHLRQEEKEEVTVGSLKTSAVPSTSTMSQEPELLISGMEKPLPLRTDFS
UniProt Q99942: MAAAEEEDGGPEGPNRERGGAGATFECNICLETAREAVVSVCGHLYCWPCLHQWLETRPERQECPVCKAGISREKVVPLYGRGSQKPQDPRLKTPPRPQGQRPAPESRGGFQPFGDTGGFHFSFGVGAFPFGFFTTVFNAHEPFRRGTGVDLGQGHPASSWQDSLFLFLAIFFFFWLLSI

Experiments:
GST-HA-STING = GST-HA-STING (UniProt Q86WV6); assay: pull-down; GST-HA-STING on GST beads mixed with Flag-RNF5, overnight at 4 °C; washes with 150 mM NaCl, 0.2% Triton X-100; WB; only the target purified
[1] = target: Flag-RNF5 (Ring-finger protein 5) (UniProt Q99942); assay: co-IP; HEK-293T cells co-transfected with Flag-RNF5 and Myc-STING plasmids; IP lysis buffer (20 mM Tris-HCl pH 7.4, 150 mM NaCl, 1 mM EDTA, 1% NP-40); Protein G-agarose beads and anti-label antibodies overnight at 4 °C; washes with 300 mM and 150 mM NaCl buffers; WB

Substance | binding (GST-HA-STING) | binding [1]
Flag-RNF5 (for the GST pull-down) (from UniProt Q99942 1-180) | binds | 
Myc-STING (stimulator of interferon genes) (from UniProt Q86WV6 1-379) |  | binds
